According to patent US20240327455A1, “HIGH-AFFINITY SUPRAMOLECULAR POLYMERS FOR BINDING-TRIGGERED ANTIBODY PRECIPITATION AND PURIFICATION” (The Johns Hopkins University, priority 2021, published 2024):
For some assays here: At least one peptide structure holds a part that was inferred or is arguable (an end, a ring closure or a residue). Some of these results come from one statement about several compounds together. Peptide text beside a SMILES is read from it. * marks the point of attachment. Lauroyl = CCCCCCCCCCCC(=O)*

How the values were obtained:
[1] = Self-assembly and TEM imaging (filament diameter); type: physicochemical; conditions: self-assembled in PBS pH 7.4; mean±SD (n=30)
Experimental: Self-Assembly, Co-Assembly, and TEM Imaging. For self-assembly, filler or ligand molecules were dissolved in PBS (20 mM sodium phosphate, 150 mM sodium chloride, pH 7.4) to reach a final concentration of 2.5 mM or 400 μM, respectively, and aged for 24 hours at room temperature. To construct co-assembled IFs, filler and ligand molecules were pretreated with hexafluoroisopropanol (HFIP) to eliminate any pre-existing nanostructures that could be possibly formed during the synthesis and purification process. After HFIP evaporation, filler and ligand molecules were dissolved in PBS (20 mM sodium phosphate, 150 mM sodium chloride, pH 7.4) to reach desired concentrations and aged for 24 hours at room temperature. 10 μl stock of each sample solution was then spotted on carbon film coated copper grids with 400 square mesh (Electron Microscopy Sciences, Hatfield, PA, USA) and the excess was removed with filter paper to leave a thin film of sample on the grid. After letting the sample dry for 5 minutes, 10 μl 2% uranyl acetate was added to the sample grid, and the excess was removed after 30 seconds. All samples were dried for at least three hours before imaging. Bright-field TEM imaging was performed on a FEI Tecnai 12 TWIN Transmission Electron Microscope and all TEM images were required by a SIS Megaview III wide-angle CCD camera.

pure mAb1 = target: T1, pure mAb1 (Homo sapiens, UniProt P01857); experiment: mAb precipitation experiment with co-assembled IFs; conditions: for mAb precipitation yield: 20 μM mAb1, 2.5 mM filler, 100 μM ligand, 1 M salt; for time until IF solution became cloudy after the mAb addition: co-assembled IFs (2.5 mM filler, 100 μM ligand)
T1 construct: host or cells: CHO is stated only for the clarified harvest
Experimental: mAb Precipitation Experiment. IF stock solutions at desired filler and ligand concentrations were prepared one day before the precipitation experiment. In experimental groups, pure mAb1 from a concentrated solution (448 μM, 64.5 g/L) was then added into 100 μL IF solutions to reach a desired final concentration and incubated for 30 minutes at room temperature. The solution was then centrifuged at 15000 rpm for 15 minutes. For the 1M salt group, ammonium sulfate was added to the mAb-IF mixtures to reach a final concentration of 1M and incubated for another 30 minutes before centrifugation. The supernatant was taken out and analyzed by ProA-HPLC (POROS™ A 20 μm Column, Stainless Steel, 2.1×30 mm, 0.1 mL) to determine the protein concentrations. The precipitated amount of each species was calculated by subtracting the amount in the supernatant from the amount added. The precipitation yield was calculated by dividing […].

| Compound | diameter of self-assembled filamentous structures (TEM) [1] [nm] | mAb precipitation yield (pure mAb1) | time until IF solution became cloudy after the mAb addition (pure mAb1) [min] |
| --- | --- | --- | --- |
| CCCCCCCCCCCC(=O)N[C@H](C(=O)N[C@H](C(=O)N[C@@H](CCC(=O)O)C(=O)N[C@@H](CCC(=O)O)C(=O)O)C(C)C)C(C)C [C12-VVEE] (Lauroyl-VVEE-OH; N-terminus and C-terminus assumed) | 7.4±0.6 | – | – |
| O12: ligand molecule C12-VVKK[Linker]Z33, linker OEG12 | – | greater than 95% | ≤ 5 |
| O16: ligand molecule C12-VVKK[Linker]Z33, linker OEG16 | – | greater than 95% | ≤ 5 |
| O36: ligand molecule C12-VVKK[Linker]Z33, linker OEG36 | – | greater than 95% | ≤ 5 |
| P2000: ligand molecule C12-VVKK[Linker]Z33, linker PEG2000 | – | – | ≤ 5 |
